Measurements reported in PubChem BioAssay AID504444 (National Center for Advancing Translational Sciences (NCATS), 2011).
Out of some 360,000 compounds screened, about 7,500 (2.1%) were called active. The shares of active, inactive and inconclusive entries below differ from those in the screen. Calls follow the shape of the dose curve; as a rule, active = well fitted inhibition curve with a large enough effect; inconclusive = small, poorly fitted or top-dose-only effect, or effect the other way; inactive = flat fitted curve, though single readings scatter. A potency beside an inconclusive call is a rough fit, not a confirmed value.

Test: Nrf2 qHTS screen for inhibitors; also: nearly all actives have a fitted effect of over 60% in size
Details: A549 ARE-Fluc reporter, luciferase luminescence, 18-24 h; activity change, negative = inhibition: at 46 µM (top of the series)
Method in brief: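 A549 ARE_Fluc cells (5000/well, 5% FBS OPTI-MEM) pre-incubated 2 h, then treated with compounds 18-24 h at 37C/5% CO2 in concentration-response. CellTiter-Fluor viability read first; BugLite luciferase luminescence after 15 min at room temperature gives Nrf2 activity.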
% is scaled to controls: 0 for no effect and ±100 for the full control effect; potency is read from the fitted curve at half-maximal effect.

Row | SMILES | Potency | activity change, negative = inhibition
1 | CCc1cc2c(cc3c(=O)n(CC(=O)N4CCN(c5cc(Cl)ccc5C)CC4)nc(CC)n32)s1 | inconclusive: 2.59 µM [falling, partial curve, poor fit] | 
2 | COc1ccc(C(=O)COC(=O)CCS(=O)(=O)c2ccc(C)cc2)c(OC)c1 | inactive | 
3 | O=C(COC(=O)c1cccc(Cl)c1Cl)NC1CCCC1 | inactive | 
4 | c1cnc(N2CCN(Cc3c[nH]c4ccccc34)CC2)nc1 | inconclusive: 18.4 µM [falling, partial curve, poor fit] | 
5 | O=C(/C=C/c1ccccc1Cl)NCCN1CCOCC1 | inconclusive: 16.4 µM [activator, single point] | 
6 | CCc1ccc(NC(=O)c2cnc3scc(C)n3c2=O)cc1 | inconclusive: 13 µM [activator, partial curve, poor fit] | 
7 | CCC(c1nnnn1CCc1ccccc1)N(Cc1ccco1)Cc1cc2c(C)ccc(C)c2[nH]c1=O (stereo not given) | active: 18.4 µM | 
8 | Cc1ccc(C2=NN(S(C)(=O)=O)C(c3ccc4nccnc4c3)C2)cc1 (stereo not given) | inconclusive: 10.3 µM [activator, partial curve, poor fit] | 
9 | Cc1cc(C(=O)Nc2cnc3ccccc3c2)ccc1[N+](=O)[O-] | inconclusive: 1.3 µM [activator, full curve] | 
10 | COc1ccc(OC)c(C2=NS(=O)(=O)N(C)C(C(=O)NCc3ccco3)=C2)c1 | inconclusive: 25.9 µM [falling, single point] | 
11 | CN(C)S(=O)(=O)c1cccc(-c2nn(-c3ccccc3)cc2/C=C(\C#N)c2nc3ccccc3[nH]2)c1 | inconclusive: 0.517 µM [falling, full curve] | 
12 | O=S(=O)(Nc1ccccc1Cl)c1ccc(F)cc1 | inconclusive: 0.411 µM [falling, full curve, poor fit] | 
13 | CC1(C)OC(=O)C2(Cc3ccc(Cl)cc3N3CCCC32)C(=O)O1 (stereo not given) | inactive | 
14 | COc1ccc(C2CC(c3cccs3)=NN2C(=O)CSc2nc(=O)n3ccccc3n2)cc1 (stereo not given) | inconclusive: 3.66 µM [falling, full curve] | 
15 | COc1ccc(CCNC(=O)CCCCCn2c(=O)[nH]c3cc(OC)c(OC)cc3c2=O)cc1OC |  | inactive: 10.9% [at 9.27 µM]
16 | Cc1ccc(C)c(Cn2c(C)c(CNCc3ccc(F)cc3)c(C(=O)O)c2C)c1 | inactive | 
17 | O=C(NCc1ccc2c(c1)OCO2)c1c(-c2ccccc2)sc2ccccc12 | inconclusive: 29.1 µM [activator, single point] | 
18 | CCn1cc(Cl)c(C(=O)Nc2ccccc2C(N)=O)n1 | inconclusive: 29.1 µM [activator, single point] | 
19 | CCOC(=O)C1=C(CCc2ccccc2)NC(=O)NC1c1ccc2ccccc2c1 (stereo not given) | inconclusive: 29.1 µM [falling, single point] | 
20 | C=CCn1c(O)c(N=Nc2ccccc2)c2ccccc21 | inconclusive: 0.0731 µM [activator, full curve, poor fit] | 
21 | CCCCCC(=O)NC(NC(=S)N1CCOCC1)C(Cl)(Cl)Cl (stereo not given) | inconclusive: 20.6 µM [falling, single point] | 
22 | CCOCCCNC(=O)c1cc(Cl)c(NC(=O)C2=C(C)OCCS2)cc1OC | inconclusive: 5.8 µM [falling, full curve, poor fit] | 
23 | CC(=O)c1c(Cl)nc2ccc(Br)cc2c1-c1ccccc1 | inconclusive: 20.6 µM [falling, single point] | 
24 | Cc1c(NC2=C(Cl)C(=O)N(c3ccccc3)C2=O)c(=O)n(-c2ccccc2)n1C | inactive | 

Row | SMILES | Potency | activity change, negative = inhibition
25 | Fc1ccc(CSc2nc3ccccc3[nH]2)cc1 | inconclusive: 4.11 µM [activator, full curve] | 
26 | COc1ccc(-c2cn3c(C)c(C(=O)NCCN4CCOCC4)sc3n2)cc1 | inactive | 
27 | COc1ccc(-c2cc(C(F)(F)F)n3nc(C(=O)Nc4cccc(C(F)(F)F)c4)c(Br)c3n2)cc1 | inactive | 
28 | Cc1nc(N2CCOCC2)nc(Oc2ccccc2)c1[N+](=O)[O-] | inconclusive: 18.4 µM [activator, partial curve, poor fit] | 
29 | CCCCn1nnc(NC(=O)c2ccc(-c3cccc(Cl)c3)o2)n1 | inconclusive: 20.6 µM [falling, partial curve, poor fit] | 
30 | COc1cccc(NC(=O)C2C3C=CC(O3)C2C(=O)O)c1 (stereo not given) | inactive | 
31 | COc1ccc(C(=O)NCCSc2ccccc2)cc1 | inconclusive: 0.461 µM [activator, full curve, poor fit] | 
32 | O=C(O)C(Cc1c[nH]c2ccccc12)N1Cc2ccccc2C1=O (stereo not given) | inconclusive: 9.2 µM [activator, partial curve] | 
33 | COc1cc(/C=C2\SC(=Nc3ccc(Cl)c(C(=O)O)c3)NC2=O)c(Br)c(Br)c1O | inactive | 
34 | CC1=C(c2ccc(Cl)cc2)S(=O)(=O)N=C1N1CCN(c2cccc(C(F)(F)F)c2)CC1 | inconclusive: 29.1 µM [falling, single point] | 
35 | CCCC(C(=O)NCCC(C)C)N(Cc1ccccc1Cl)C(=O)c1snc(C(N)=O)c1N (stereo not given) | inconclusive: 29.1 µM [falling, single point] | 
36 | COc1cc(C(=O)NCC(c2cccs2)N2CCOCC2)cc(OC)c1OC (stereo not given) | inconclusive: 5.17 µM [activator, partial curve, poor fit] | 
37 | O=C(Nc1ccon1)c1nc[nH]c1C(=O)N1CCN(c2ccccc2)CC1 | inactive | 
38 | CCC(C)NC(=O)c1cc(-c2ccc(OC)cc2)on1 (stereo not given) | inconclusive: 2.59 µM [activator, partial curve, poor fit] | 
39 | O=[N+]([O-])c1ccc(N/N=C/c2sc(N3CCOCC3)nc2-c2ccccc2)c(S(=O)(=O)Nc2ccc(Cl)cc2)c1 | active: 1.46 µM | 
40 | c1ccc2c(c1)CNC1(CCCCC1)C2 | inactive | 
41 | CC(Oc1ccccc1)C(=O)Nc1cccc([N+](=O)[O-])c1 (stereo not given) | inconclusive: 9.2 µM [falling, partial curve, poor fit] | 
42 | COc1cc(SC)ccc1C(=O)Nc1nc2ccccc2[nH]1 | active: 1.64 µM | 
43 | O=S(=O)(c1ccc(Br)cc1)N1CCOCC1 | inactive | 
44 | N#C/C(=N\Nc1ccccc1)C(=N)N1CCCCC1 | inconclusive: 2.31 µM [activator, partial curve] | 
45 | O=C(O)c1ccccc1Nc1ccc([N+](=O)[O-])cc1 | inconclusive: 8.2 µM [activator, partial curve] | 
46 | CCSc1nc(-c2ccc(Cl)cc2)nc2c1Cc1c(CO)cnc(C)c1O2 | inconclusive: 16.4 µM [activator, single point] | 
47 | COc1ccccc1NC(=O)N1c2ccccc2NC(=O)CC1C (stereo not given) | inactive | 
48 | CCC(C(=O)Nc1cccc(C(F)(F)F)c1)c1ccccc1 (stereo not given) | inconclusive: 32.6 µM [falling, single point] | 

Ordered by molecular weight (rising): some entries from above
Row | SMILES | Potency | activity change, negative = inhibition
38 | CCC(C)NC(=O)c1cc(-c2ccc(OC)cc2)on1 (stereo not given) | inconclusive: 2.59 µM [activator, partial curve, poor fit] | 
41 | CC(Oc1ccccc1)C(=O)Nc1cccc([N+](=O)[O-])c1 (stereo not given) | inconclusive: 9.2 µM [falling, partial curve, poor fit] | 
36 | COc1cc(C(=O)NCC(c2cccs2)N2CCOCC2)cc(OC)c1OC (stereo not given) | inconclusive: 5.17 µM [activator, partial curve, poor fit] | 

Following part.

Row | SMILES | Potency | activity change, negative = inhibition
49 | Cc1occc1C(=O)N/N=C/c1ccc(OCc2ccccc2)cc1 | inactive | 
50 | CC(C)c1ccc(-c2nc3ccccc3s2)cc1 | inconclusive: 29.1 µM [falling, single point] | 
51 | COc1cc(C2Nc3ccccc3C(=O)N2c2ccc3c(c2)OCCO3)ccc1OCC(C)C (stereo not given) | inconclusive: 1.84 µM [activator, partial curve] | 
52 | O=C(NCc1ccc(Cl)cc1)c1n[nH]c([N+](=O)[O-])c1Cl | inactive | 
53 | CCn1c(SCC(=O)N2CCN(c3ccccc3)CC2)nnc1-c1ccoc1C | inactive | 
54 | O=C(c1ccc(Cl)s1)N1CCN(c2nc3ccccc3s2)CC1 | active: 7.31 µM | 
55 | CC(=O)c1cc2c(=O)c3ccccc3oc2nc1C | inconclusive: 3.66 µM [activator, full curve] | 
56 | O=C(Nc1c(C(=O)Nc2cccc(C(F)(F)F)c2)oc2ccccc12)c1cc(=O)c2ccccc2o1 | inactive | 
57 | Cc1cc2[nH]c(=O)c3ccccc3n2n1 | inconclusive: 0.146 µM [falling, full curve, poor fit] | 
58 | CCN1CCN(Cc2ccc(NC(=O)Nc3ccccc3)cc2)CC1 | inconclusive: 1.03 µM [activator, full curve] | 
59 | Cc1cc(C)cc(NC(=O)c2ccc(CN3CCc4ccccc4C3)cc2)c1 | active: 14.6 µM | 
60 | COc1ccc2oc(C)c(C(=O)c3ccc(C)cc3)c2c1 | inconclusive: 20.6 µM [activator, single point] | 
61 | CCOC(=O)N1CCN(CC(O)COc2ccc(OC)cc2C(C)(C)C)CC1 (stereo not given) | inactive | 
62 | C=CCN1C(=O)C(C)(C)N(C(C)=O)c2ccccc21 | inconclusive: 32.6 µM [falling, single point] | 
63 | COc1ccc2[nH]c(C(=O)N3CCN(Cc4ccccc4)CC3)cc2c1OC | inconclusive: 10.3 µM [activator, partial curve] | 
64 | COc1ccc(NC(=O)CC2SC(=NCc3ccccc3OC)NC2=O)cc1 (stereo not given) | inconclusive: 29.1 µM [falling, single point] | 
65 | Cc1ccc(NS(=O)(=O)c2ccc(CCC(=O)O)cc2)cc1 | inconclusive: 6.51 µM [falling, partial curve, poor fit] | 
66 | CCn1c(SCc2ccccc2)nnc1C1CCN(S(=O)(=O)c2ccc(OC)cc2)CC1 | inconclusive: 9.2 µM [falling, single point] | 
67 | C=CCn1c(SCc2c(C)noc2C)nc2sc(C)c(C)c2c1=O | inconclusive: 16.4 µM [falling, single point] | 
68 | O=C1C(C=NC2CC2)=C(O)c2ccccc21 | inconclusive: 9.2 µM [activator, partial curve] | 
69 | O=C(NNc1nc(-c2ccccc2)c2cc(Br)ccc2n1)c1ccc(S(=O)(=O)N2CCOCC2)cc1 | inconclusive: 23.1 µM [falling, single point] | 
70 | CN(Cc1cccc(Cl)c1Cl)c1ccc(S(=O)(=O)N2CCCCC2)cc1[N+](=O)[O-] | inconclusive: 29.1 µM [falling, single point] | 
